# According to PubChem BioAssay AID651898 (Broad Institute, 2012):
# This list was built around the results that the source calls inconclusive (neither active nor inactive); the mix of calls is not that of the screen. Activity calls are given as the source filed them. The rule behind the calls is not given here.
# Assay: cytotoxicity in HepG2 cells, dose response, cytotoxicity control, cell-based, plate reader, cherry-pick, two tests (AID 651898)
# Details: max activity: at 1.6 µM, test 1 unless noted; series mostly up to 26 µM
row,SMILES,max activity
1,O=C(Nc1ccccc1)N1CCN(Cc2ccc3c(c2)OCO3)CC1,inconclusive: -100%
2,O=C(Nc1ccc(F)cc1)NC1CCN(Cc2nnnn2Cc2ccco2)CC1,inconclusive: -99.3%
3,O=C(Nc1cccnc1)C1CCN(S(=O)(=O)c2ccc(Cl)cc2)CC1,"inactive: -13.3% [at 26 µM, test 1]"
4,O=C(O)CN1C(=O)/C(=C\c2cc(Br)ccc2OCc2ccc([N+](=O)[O-])cc2)SC1=S,inconclusive: -99%
5,Cc1nc(-c2cccnc2)sc1C(=O)Nc1cccc(C(F)(F)F)c1,"inconclusive: 36.9% [at 0.195 µM, test 1]"
6,O=C(CSc1nc2ccccc2c(=O)n1-c1ccccc1)N1CCN(CCO)CC1,"inconclusive: 48.4% [at 0.8 µM, test 1]"
7,COc1ccc(Cn2ccc(=O)c(Cc3c(Cl)cccc3Cl)c2C)cc1,inconclusive: -99.6%
8,CN1CCN(c2ncnc3c2[nH]c2ccc(F)cc23)CC1,"inactive: -8.6% [at 0.195 µM, test 1]"
9,Fc1ccc2[nH]c3c(NCCN4CCOCC4)ncnc3c2c1,inconclusive: -96.3%
10,CC(=O)c1ccc(N2CCN(C(=O)c3ccc4nc[nH]c4c3)CC2)cc1,"inconclusive: -96.3% [at 0.8 µM, test 1]"
11,O=C(c1ccncc1)N1CC[C@@H]2[C@H]1c1cc(Br)ccc1N[C@@H]2CO,inactive

# Part of the list above, bar-delimited:
row | SMILES | max activity
4 | O=C(O)CN1C(=O)/C(=C\c2cc(Br)ccc2OCc2ccc([N+](=O)[O-])cc2)SC1=S | inconclusive: -99%
5 | Cc1nc(-c2cccnc2)sc1C(=O)Nc1cccc(C(F)(F)F)c1 | inconclusive: 36.9% [at 0.195 µM, test 1]
